Data published in paper PMC8384837.
Residue numbers refer to the chain shown, from its start. The list shows a part of the results. For some of these results: At the low end of the ranking, values are background and their order means little.

Key:
Conditions in all cases: yeast three-hybrid, YBZ-1, SC-Leu-His + 0.5 mM 3-AT, 4 days
[1] = biological target: T1, PUM1 PUF domain R4-SPG N971S + H972P + Q975G (UniProt Q14671)
T1 sequence: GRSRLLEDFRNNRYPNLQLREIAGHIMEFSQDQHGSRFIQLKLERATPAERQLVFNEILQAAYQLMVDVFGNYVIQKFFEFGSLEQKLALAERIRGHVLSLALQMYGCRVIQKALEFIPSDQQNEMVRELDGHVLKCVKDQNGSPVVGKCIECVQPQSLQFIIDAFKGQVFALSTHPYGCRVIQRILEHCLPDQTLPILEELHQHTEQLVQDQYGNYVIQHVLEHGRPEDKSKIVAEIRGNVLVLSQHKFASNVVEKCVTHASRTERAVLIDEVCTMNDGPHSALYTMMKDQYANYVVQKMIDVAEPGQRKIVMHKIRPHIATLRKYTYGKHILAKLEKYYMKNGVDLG

[2] = biological target: T2, PUM1 PUF domain R4-SPL N971S + H972P + Q975L (UniProt Q14671)
T2 sequence: T1 sequence with G148L

[3] = biological target: T3, PUM1 PUF domain R4-SPR N971S + H972P + Q975R (UniProt Q14671)
T3 sequence: T1 sequence with G148R

[4] = biological target: T4, PUM1 PUF domain R4-SPS N971S + H972P + Q975S (UniProt Q14671)
T4 sequence: T1 sequence with G148S

[5] = biological target: T5, PUM1 PUF domain R4-SPT N971S + H972P + Q975T (UniProt Q14671)
T5 sequence: T1 sequence with G148T

[6] = biological target: T6, PUM1 PUF domain R4-SPV N971S + H972P + Q975V (UniProt Q14671)
T6 sequence: T1 sequence with G148V

[7] = biological target: T7, PUM1 PUF domain R4-SPW N971S + H972P + Q975W (UniProt Q14671)
T7 sequence: T1 sequence with G148W

[8] = biological target: T8, PUM1 PUF domain R4-SQR N971S + H972Q + Q975R (UniProt Q14671)
T8 sequence: T1 sequence with P145Q, G148R

[9] = biological target: T9, PUM1 PUF domain R4-SQS N971S + H972Q + Q975S (UniProt Q14671)
T9 sequence: T1 sequence with P145Q, G148S

[10] = biological target: T10, PUM1 PUF domain R4-SRA N971S + H972R + Q975A (Homo sapiens) (UniProt Q14671)
T10 sequence: T1 sequence with P145R, G148A

[11] = biological target: T11, PUM1 PUF domain R4-SRC N971S + H972R + Q975C (UniProt Q14671)
T11 sequence: T1 sequence with P145R, G148C

[12] = biological target: T12, PUM1 PUF domain R4-SRG N971S + H972R + Q975G (Homo sapiens) (UniProt Q14671)
T12 sequence: T1 sequence with P145R

[13] = biological target: T13, PUM1 PUF domain R4-SRI N971S + H972R + Q975I (UniProt Q14671)
T13 sequence: T1 sequence with P145R, G148I

[14] = biological target: T14, PUM1 PUF domain R4-SRL N971S + H972R + Q975L (Homo sapiens) (UniProt Q14671)
T14 sequence: T1 sequence with P145R, G148L

[15] = biological target: T15, PUM1 PUF domain R4-SRM N971S + H972R + Q975M (UniProt Q14671)
T15 sequence: T1 sequence with P145R, G148M

[16] = biological target: T16, PUM1 PUF domain R4-SRR N971S + H972R + Q975R (Homo sapiens) (UniProt Q14671)
T16 sequence: T1 sequence with P145R, G148R

[17] = biological target: T17, PUM1 PUF domain R4-SRS N971S + H972R + Q975S (UniProt Q14671)
T17 sequence: T1 sequence with P145R, G148S

[18] = biological target: T18, PUM1 PUF domain R4-SRV N971S + H972R + Q975V (Homo sapiens) (UniProt Q14671)
T18 sequence: T1 sequence with P145R, G148V

[19] = biological target: T19, PUM1 PUF domain R4-SRW N971S + H972R + Q975W (UniProt Q14671)
T19 sequence: T1 sequence with P145R, G148W

[20] = biological target: T20, PUM1 PUF domain R4-SRY N971S + H972R + Q975Y (UniProt Q14671)
T20 sequence: T1 sequence with P145R, G148Y

[21] = biological target: T21, PUM1 PUF domain R4-SWG N971S + H972W + Q975G (UniProt Q14671)
T21 sequence: T1 sequence with P145W

[22] = biological target: T22, PUM1 PUF domain R4-SWP N971S + H972W + Q975P (UniProt Q14671)
T22 sequence: T1 sequence with P145W, G148P

[23] = biological target: T23, PUM1 PUF domain R4-SYP N971S + H972Y + Q975P (UniProt Q14671)
T23 sequence: T1 sequence with P145Y, G148P

[24] = biological target: T24, PUM1 PUF domain R4-TAQ N971T + H972A (UniProt Q14671)
T24 sequence: T1 sequence with S144T, P145A, G148Q

[25] = biological target: T25, PUM1 PUF domain R4-TNG N971T + H972N + Q975G (UniProt Q14671)
T25 sequence: T1 sequence with S144T, P145N

[26] = biological target: T26, PUM1 PUF domain R4-TPA N971T + H972P + Q975A (Homo sapiens) (UniProt Q14671)
T26 sequence: T1 sequence with S144T, G148A

[27] = biological target: T27, PUM1 PUF domain R4-TPC N971T + H972P + Q975C (UniProt Q14671)
T27 sequence: T1 sequence with S144T, G148C

[28] = biological target: T28, PUM1 PUF domain R4-TPG N971T + H972P + Q975G (UniProt Q14671)
T28 sequence: T1 sequence with S144T

[29] = biological target: T29, PUM1 PUF domain R4-TPN N971T + H972P + Q975N (UniProt Q14671)
T29 sequence: T1 sequence with S144T, G148N

[30] = biological target: T30, PUM1 PUF domain R4-TPS N971T + H972P + Q975S (UniProt Q14671)
T30 sequence: T1 sequence with S144T, G148S

[31] = biological target: T31, PUM1 PUF domain R4-TPV N971T + H972P + Q975V (UniProt Q14671)
T31 sequence: T1 sequence with S144T, G148V

[32] = biological target: T32, PUM1 PUF domain R4-TRG N971T + H972R + Q975G (UniProt Q14671)
T32 sequence: T1 sequence with S144T, P145R

[33] = biological target: T33, PUM1 PUF domain R4-TRT N971T + H972R + Q975T (UniProt Q14671)
T33 sequence: T1 sequence with S144T, P145R, G148T

[34] = biological target: T34, PUM1 PUF domain R4-VCA N971V + H972C + Q975A (UniProt Q14671)
T34 sequence: T1 sequence with S144V, P145C, G148A

[35] = biological target: T35, PUM1 PUF domain R4-VFP N971V + H972F + Q975P (UniProt Q14671)
T35 sequence: T1 sequence with S144V, P145F, G148P

[36] = biological target: T36, PUM1 PUF domain R4-VGI N971V + H972G + Q975I (UniProt Q14671)
T36 sequence: T1 sequence with S144V, P145G, G148I

[37] = biological target: T37, PUM1 PUF domain R4-VGL N971V + H972G + Q975L (Homo sapiens) (UniProt Q14671)
T37 sequence: T1 sequence with S144V, P145G, G148L

[38] = biological target: T38, PUM1 PUF domain R4-VGY N971V + H972G + Q975Y (UniProt Q14671)
T38 sequence: T1 sequence with S144V, P145G, G148Y

[39] = biological target: T39, PUM1 PUF domain R4-VLY N971V + H972L + Q975Y (UniProt Q14671)
T39 sequence: T1 sequence with S144V, P145L, G148Y

[40] = biological target: T40, PUM1 PUF domain R4-VNA N971V + H972N + Q975A (UniProt Q14671)
T40 sequence: T1 sequence with S144V, P145N, G148A

## GGCUAGAACUAGUGGAUCCCCCGGCGCCCGGCGGCUCGAGCCCGGGUAAGUGUAGAUAGUCUGCAUGCCGCCGGGCGCCAUGCCUGCAGGUCGACUCUAGAAAACAUG
[1]
  binding signal (log2 enrichment (interaction score)): < -8.75
[2]
  binding signal (log2 enrichment (interaction score)): < -8.07
[3]
  binding signal (log2 enrichment (interaction score)): < -7.65
[4]
  binding signal (log2 enrichment (interaction score)): < -6.96
[5]
  binding signal (log2 enrichment (interaction score)): < -7.61
[6]
  binding signal (log2 enrichment (interaction score)): < -7.68
[7]
  binding signal (log2 enrichment (interaction score)): < -8.13
[8]
  binding signal (log2 enrichment (interaction score)): < -8.02
[9]
  binding signal (log2 enrichment (interaction score)): < -6.54
[10]
  binding signal (log2 enrichment (interaction score)): -4.91
[11]
  binding signal (log2 enrichment (interaction score)): < -5.86
[12]
  binding signal (log2 enrichment (interaction score)): -3.78
[13]
  binding signal (log2 enrichment (interaction score)): < -6.38
[14]
  binding signal (log2 enrichment (interaction score)): -0.32
[15]
  binding signal (log2 enrichment (interaction score)): < -7.57
[16]
  binding signal (log2 enrichment (interaction score)): -6
[17]
  binding signal (log2 enrichment (interaction score)): < -6.89
[18]
  binding signal (log2 enrichment (interaction score)): -0.65
[19]
  binding signal (log2 enrichment (interaction score)): < -7.76
[20]
  binding signal (log2 enrichment (interaction score)): < -7.39
[21]
  binding signal (log2 enrichment (interaction score)): < -5.07
[22]
  binding signal (log2 enrichment (interaction score)): < -5.67
[23]
  binding signal (log2 enrichment (interaction score)): < -6.42
[24]
  binding signal (log2 enrichment (interaction score)): < -6.51
[25]
  binding signal (log2 enrichment (interaction score)): < -6.49
[26]
  binding signal (log2 enrichment (interaction score)): -0.12
[27]
  binding signal (log2 enrichment (interaction score)): < -6.12
[28]
  binding signal (log2 enrichment (interaction score)): < -8.49
[29]
  binding signal (log2 enrichment (interaction score)): < -5.57
[30]
  binding signal (log2 enrichment (interaction score)): < -7.51
[31]
  binding signal (log2 enrichment (interaction score)): < -5.8
[32]
  binding signal (log2 enrichment (interaction score)): < -7.52
[33]
  binding signal (log2 enrichment (interaction score)): < -5.1
[34]
  binding signal (log2 enrichment (interaction score)): < -6.04
[35]
  binding signal (log2 enrichment (interaction score)): < -5.08
[36]
  binding signal (log2 enrichment (interaction score)): < -5.96
[37]
  binding signal (log2 enrichment (interaction score)): -3.46
[38]
  binding signal (log2 enrichment (interaction score)): < -7.66
[39]
  binding signal (log2 enrichment (interaction score)): < -6.97
[40]
  binding signal (log2 enrichment (interaction score)): < -5.37
